Experimental findings from publication PMC12418388 are described below.

Results are given in words; binding and its absence hold for the method and conditions named. Binding seen in cells or lysates may run through a third protein. Some results given as binding are weak or reduced against the parent protein; the word gives no strength.

This test has as its target T1, wild-type DDX6 of the co-IP experiments of Supplementary Fig. S6 (UniProt P54823).
T1 sequence: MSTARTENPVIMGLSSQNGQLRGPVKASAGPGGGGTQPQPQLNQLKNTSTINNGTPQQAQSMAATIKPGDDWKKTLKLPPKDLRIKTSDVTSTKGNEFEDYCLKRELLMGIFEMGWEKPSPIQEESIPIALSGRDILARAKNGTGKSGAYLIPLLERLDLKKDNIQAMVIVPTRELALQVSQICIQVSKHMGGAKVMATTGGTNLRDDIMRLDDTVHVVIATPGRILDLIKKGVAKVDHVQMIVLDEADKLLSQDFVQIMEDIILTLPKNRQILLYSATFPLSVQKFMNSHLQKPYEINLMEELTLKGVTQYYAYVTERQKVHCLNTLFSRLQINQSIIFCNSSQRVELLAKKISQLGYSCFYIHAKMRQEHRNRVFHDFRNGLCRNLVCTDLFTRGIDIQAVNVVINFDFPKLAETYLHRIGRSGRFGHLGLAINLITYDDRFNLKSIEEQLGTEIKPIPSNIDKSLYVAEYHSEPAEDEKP
The test can be described thus: co-IP; co-IP of wild-type, truncated and mutant DDX6 proteins (Supplementary Fig. S6A, B); cells not given; western blot.

B1: eIF4E transporter (4E-T) (protein, UniProt Q9EST3 1-983)
chain: MEKSVAETENGDAFLELKKLPTSKSPHRYTKEELLDIKERPYSKQRPSCLSEKYDSDGVWDPEKWHASLYPASGRSSPVESLKKESESDRPSLVRRIADPRERVKEDDLDVVLSPQRRSFGGGCHVTAAVSSRRSGSPLEKDSDGLRLLGGRRIGSGRIISARAFEKDHRLSDKDLRDLRDRDRERDYKDKRFRREFGDSKRVFGERRRNDSYTEEEPEWFSAGPTSQSETIELTGFDDKILEEDHKGRKRTRRRTASVKEGIVECNGGVAEEDEVEVILAQEPSADQEVPRDVILPEQSPGEFDFNEFFNLDKVPCLASMIEDVLGEGSVSASRFSRWFSNPSRSGSRSSSLGSTPHEELERLAGLEQAVLSPGQNSGNYFAPIPSEDHAENKVDILEMLQKAKVDLKPLLSSLSANKEKLKESSHSGVVLSVEEVEAGLKGLKVDQQMKNSTPFMAEHLEETLSAASSNRQLKKDGDMTAFNKLVNTMKASGTLPTQPKVSRNVESHLLAPAEIPGQPVSKNILQELLGQPVQRPASSNLLSGLMGSLEATASLLSQRAPSPPMSQVFRTQAASADYLHPRIPSPIGFPSGPQQLLGDPFQGMRKPMSPVSAQMSQLELQQAALEGLALPHDLAVQTAPFYQPGFSKPQVDRTRDGLRNRQQRMSKSPAPMHGGNSSSPAPAASITSMLSPSFTPTSVIRKMYESREKTKEEMAPGMVVPGDGKEDTQKTSEENLLSSNPIPNTDQDSSTTNPKLSTLQRSSCSTPLSQTSRYTKEQDYRPKTAGRKTPTLASPVPGTPFLRPTHQVPLVPHVPIVRPAHQLHPGLVQRLIAQGVHPQHLPSLLQAGVLPPGIDMAPLQGLSGPLLGQPLYPLVSAASHPLLNPRPGTPLHLAVMQQQLQRSVLHPPGSSSQAAAISVQTPQNVPSRSGMPHMHSQLEHRTSQRSSSPVGLAKWFGSDVLQQPLPSMPTKVISVDELEYRQ
With B1, the binding entry is on record as “binds”.

B2: EDC3 (protein, UniProt Q8K2D3 1-508)
chain: MAMDWLGSIVSINCGDSLGVYQGRVSAVDQVSQTISLTRPFHNGVKCLVPEVTFRAGDITELKILEIPGPGDNQQVGDLHQTELGPSGVGYQMSISQNGTGKVVKKPASSSSAPQSIPKRTDVKSQDVAISPQQQQCSKSYVDRHMESLSQSKSFRRRHNSWSSSSRHPNQATPKKSGLKNGQMKNKDDECFGDDIEELPDTDFDFEGNLALFDKAAVFEEIDTYERRSGSRSRGVPNERPARYRHDENILESEPIVYRRITVPHSVSKEFCTDSGLVVPSVSYELHKKLLSVAEKHGLTLERRLEMTGVCASQMALTLLGGPNRLNPKNVHQRPTVALLCGPHVKGAQGISCGRHLANHDVQVILFLPNFVKMLESITNELSLFSKTQGQQVSSLRDLPASPVDLVINCLDCPENAFLRDQPWYKAAVAWANQNRAPVLSIDPPVHEVEQGIDAKWSLALGLPLPLGEHAGRVYLCDIGIPQQVFQEVGINYHSPFGCKFVIPLHSA
For the molecule B2, the binding entry is on record as “binds”.
